Here are results for eight molecules from patent publication US6057085A, “Color photographic recording material” (Agfa-Gevaert NV, priority 1997, dated 2000).

The nature of series [1]: ΔDmin vs material 1.1 after colour negative development (removal of yellow filter dye during processing). The procedure: (§1) A colour photographic recording material for colour negative development was produced by applying the following layers in the stated sequence onto a polyethylene naphthalate (PEN) film base having a thickness of 90 μm and provided on the front side with a coupling layer and on the reverse side with a magnetic recording layer (quantities in g/m^2):
(§2) After exposure with a grey wedge, development was performed in accordance with The British Journal of Photography, 1974, pages 597 and 598.

Series [2] can be described thus: Change in blue sensitivity ΔE(blue) after 7 days' storage at 35° C./90% relative humidity (dye diffusion). The procedure: as §1, §2
(§3) The sensitometric differences which are also described in table 1 were found.
***after 7 days' storage at 35° C./90% relative humidity

The nature of series [3]: Change in green sensitivity ΔE(green) after 12 months' storage under normal room conditions. Here is the method:
as §1, §2, §3
**after 12 months' storage under normal room conditions

Setting [4] is: dye incorporated as SPD (solid particle dispersion) in 9th layer.
Where [5] appears, read: dye incorporated as OFD (dye emulsion) in 9th layer.

On to `CN(C)c1ccc(C=C(C#N)c2nc3cc(C(=O)O)ccc3o2)cc1` [Dye I-1], for which the “ΔDmin vs 1.1” value in series [1] (setting [4]) came out at 0.00. Further, in series [2] (SPD), the “DE (blue)” value was -0.07. Also, the “ΔE (green)” value in series [3] (SPD) is -0.02 log H units.

On to `Cc1cc(N(CC(=O)OC(C)COC(C)COC(C)(C)C)CC(=O)OC(C)COC(C)COC(C)(C)C)ccc1C=C(C#N)c1nc2cc(C(=O)O)ccc2o1` (stereo not drawn) [Dye I-6], for which the “ΔDmin vs 1.1” value in series [1] (setting [5]) is recorded as 0.01. Further, the “DE (blue)” value in series [2] (OFD) was -0.05. The “ΔE (green)” value in series [3] (OFD) is reported as -0.03 log H units.

Turning to `CCOCCOCCN(CCOCCOCC)c1ccc(C=C(C#N)c2nc3cc(S(=O)(=O)NC(=O)CC)ccc3o2)cc1` [Dye I-10], the “ΔDmin vs 1.1” value in series [1] (setting [5]) is on record as 0.01. Moreover, the “DE (blue)” value in series [2] (OFD) is recorded as -0.03. In addition, the “ΔE (green)” value in series [3] (OFD) is listed as -0.02 log H units.

For the molecule `CCOCCOCCN(CCOCCOCC)c1ccc(C=C(C#N)c2nc3cc(S(=O)(=O)NC(=O)CC)ccc3s2)cc1` [Dye I-22], in series [1] (setting [5]), the “ΔDmin vs 1.1” value came to 0.00. Further, the “DE (blue)” value in series [2] (OFD) is -0.04. The “ΔE (green)” value in series [3] (OFD) is reported as -0.03 log H units.

On to `CCCCOC(=O)CN(CC(=O)OCCCC)c1ccc(C=C(C#N)C(=O)c2ccc(NS(C)(=O)=O)cc2)c(C)c1` [GF-2], for which the “ΔDmin vs 1.1” value in series [1] (setting [5]) was found to be 0.01. Further, the “DE (blue)” value in series [2] (OFD) is given as -0.15. In addition, the “ΔE (green)” value in series [3] (OFD) was -0.13 log H units.

For the molecule `CCCCS(=O)(=O)Nc1ccc(C2=C(C#N)C(=O)OC2=Cc2ccco2)cc1` [GF-3], the “ΔDmin vs 1.1” value in series [1] (setting [5]) and in series [1] (setting [4]) was 0.00 throughout. Further, the figures for the “DE (blue)” value in series [2] (OFD) and in series [2] (SPD) were -0.25 and -0.21, respectively. The “ΔE (green)” value was -0.03 log H units in series [3] (OFD) and -0.02 log H units in series [3] (SPD).

On to `CCCCCCCCCCCCCCCCS(=O)(=O)Nc1ccc2nc(C(C#N)=Cc3ccc(N(CC)CC)cc3C)sc2c1` [GF-4], for which, in series [1] (setting [5]), the “ΔDmin vs 1.1” value is reported as 0.65. Further, in series [2] (OFD), the “DE (blue)” value is -0.02. Also, the “ΔE (green)” value in series [3] (OFD) was -0.02 log H units.

For `CCCCCCCCCCCCNc1cc(C)c(C=C(C#N)c2nc3ccc(NS(C)(=O)=O)cc3o2)cc1C` [GF-5], the “ΔDmin vs 1.1” value in series [1] (setting [5]) was 0.62. In addition, in series [2] (OFD), the “DE (blue)” value is on record as -0.03. Moreover, the “ΔE (green)” value in series [3] (OFD) was -0.02 log H units.
